# “And” between values parts separate entries of the source, which are not always exact repeats. Identical values can stand only once. About 6,100 (1.1%) of roughly 580,000 compounds were called active. Inconclusive means that the source gave no clear call. Such entries were picked first, then a sample of the others. The call rests on the fitted dose curve; in most records, active means well fitted inhibition curve with a large enough effect; inconclusive means small, poorly fitted or top-dose-only effect, or another doubt; inactive means no such curve, though single readings can be large or run the other way. Where the call is inconclusive, the potency comes from a doubtful curve fit.
# Amino acid sequences for entries named in this document (tags omitted). A change or cut given only in a name is not applied to a line headed by its entry.
# UniProt P18054: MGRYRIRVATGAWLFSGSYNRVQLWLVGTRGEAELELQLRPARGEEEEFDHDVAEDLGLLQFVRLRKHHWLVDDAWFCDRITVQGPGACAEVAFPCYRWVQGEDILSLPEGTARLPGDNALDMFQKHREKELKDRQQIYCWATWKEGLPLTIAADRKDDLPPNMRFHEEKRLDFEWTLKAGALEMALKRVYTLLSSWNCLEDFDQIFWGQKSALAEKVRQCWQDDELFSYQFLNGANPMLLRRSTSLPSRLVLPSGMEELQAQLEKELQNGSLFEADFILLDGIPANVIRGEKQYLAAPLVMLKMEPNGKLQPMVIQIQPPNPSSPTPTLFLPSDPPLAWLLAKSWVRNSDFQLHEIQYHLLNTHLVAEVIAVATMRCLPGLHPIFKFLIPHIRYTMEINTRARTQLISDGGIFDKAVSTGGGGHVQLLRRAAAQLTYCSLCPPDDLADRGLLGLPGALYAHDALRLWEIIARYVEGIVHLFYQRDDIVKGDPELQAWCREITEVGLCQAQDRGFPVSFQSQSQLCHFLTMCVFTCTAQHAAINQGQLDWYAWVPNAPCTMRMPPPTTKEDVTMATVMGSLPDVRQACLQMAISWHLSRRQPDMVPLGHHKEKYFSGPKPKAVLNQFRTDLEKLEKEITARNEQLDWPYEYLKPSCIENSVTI
# Biological target: Polyunsaturated fatty acid lipoxygenase ALOX12 (Homo sapiens) (UniProt P18054)
# Test: Primary qHTS assay for inhibitors of human arachidonate 12S-lipoxygenase (ALOX12): Round 2
# Details: purified 12hLO, xylenol orange hydroperoxide absorbance; activity change, negative = inhibition: at 108 µM (top of the series)
# Summary of the method: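 Purified human 12hLO at 150 nM in 25 mM Hepes, 0.01% Triton X-100, pH 7.0, preincubated 15 min at room temperature with compound. Reaction started with 40 uM arachidonic acid, 30 min at room temperature. Hydroperoxide measured by Fe-xylenol orange, 573/405 nm absorbance ratio.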
# On the % scale 0 is the no-effect control and ±100 the full control effect; potency means the concentration at half of the fitted maximal effect.
SMILES,Potency,"activity change, negative = inhibition"
COC(=O)C1=C(c2ccc(-c3ccccc3)c(F)c2)C[C@@H]2CC[C@H]1N2C(=O)NCc1cc(C)oc1C(F)(F)F,"inconclusive: 10 µM [inhibitor, full curve, poor fit]",–
Cc1ccc(Cn2nnnc2CN2CCC(n3nnc4cc(C)ccc43)CC2)cc1,"inconclusive: 50.1 µM [inhibitor, partial curve, poor fit]",–
CC(C)NC(=O)[C@H]1CN2CCC1C[C@@H]2Cn1cc(CCO)nn1 (stereo not given in full),–,inactive: -26.1% [at 176 µM]
CN1Cc2ccccc2-n2ccnc2C12CCN(C(=O)c1ccc(C(F)(F)F)cc1)CC2,–,inactive: 46%
CCCS(=O)(=O)Nc1ccc(=O)n2c1[C@@H]1C[C@@H](CN(S(=O)(=O)c3ccccc3)C1)C2,"inconclusive: 44.7 µM [inhibitor, partial curve, poor fit]",–
O=C1C(I)=CC(=C(c2cc(I)c(O)c(I)c2)c2ccccc2C(=O)O)C=C1I,active: 5.1 µM,–
CC(C)C1C(=O)O[C@@H]2CCN3CC=C(COC(=O)[C@](C)(O)[C@]1(C)O)[C@H]23 (stereo not given in full),–,inactive: 1.21%
Cc1ccc(-n2c(O)c(/C=N/c3ncc(Br)cc3Br)c(=O)[nH]c2=O)cc1,–,inactive: 0%
Cn1ccnc1P(=S)(c1nccn1C)N1CCOCC1,"inconclusive: 3.55 µM [inhibitor, full curve]",–
COc1ccc(-n2nnnc2C(c2ccnc3ccccc23)N2CCC3(CC2)C(=O)NCN3c2ccccc2)cc1 (stereo not given),"inconclusive: 100 µM [inhibitor, partial curve, poor fit]",–
COc1ccc(Br)cc1CN1CCN(CCO)CC1,"inconclusive: 56.2 µM [inhibitor, partial curve, poor fit]",–
COCC(=O)NC[C@H]1C[C@@H]2CCN1C[C@@H]2c1cc(-c2ccccc2Br)nc(C)n1,–,inactive: 49.8%
COc1ccc(C(CC(=O)c2ccc3c(c2)OCO3)c2c(O)c3ccccc3oc2=O)cc1OC (stereo not given),"inconclusive: 44.7 µM [inhibitor, partial curve, poor fit]",–
CCOC(=O)c1ccccc1C(=O)OCC,–,inactive: 2.83%
NC(N)=NOCC[C@H](N)C(=O)O,"inconclusive: 10 µM [inhibitor, partial curve, poor fit]",–
CCOC(=O)C1(CCc2ccccc2)CCN(Cc2csc(C(C)=O)c2)CC1,–,inactive: -10.8%
CN1C(=O)C(=Cc2ccccc2OCc2ccccc2Cl)C(=O)N(C)C1=O,"inconclusive: 50.1 µM [inhibitor, partial curve, poor fit]",–
Cc1ccccc1-n1c(/C=C/c2ccc(O)cc2)nc2ccccc2c1=O,"inconclusive: 178 µM [inhibitor, partial curve, poor fit]",–
N#Cc1cccc(NC(=O)NC[C@H]2C[C@@H]3CCN2C[C@@H]3CN2CCN(c3ccccn3)CC2)c1,–,inactive: 7.62%
N[C@@H](Cn1oc(=O)[nH]c1=O)C(=O)O,"inconclusive: 1.41 µM [inhibitor, full curve, poor fit] and inconclusive: 562 nM [inhibitor, full curve, poor fit]",–
CCOc1ccccc1CN(CCc1ccc2c(c1)OCO2)Cc1ccc(CC)cc1,"inconclusive: 0.562 µM [inhibitor, full curve]",–
COc1cccc(C2CC3C(=O)C=CC2N3Cc2ccccc2)c1 (stereo not given),"inconclusive: 44.7 µM [inhibitor, partial curve, poor fit]",–

SMILES,Potency,"activity change, negative = inhibition"
CN(C)c1ccc(/C=C2/C(=N\O)C3CCN2CC3)cc1,"inconclusive: 89.1 µM [inhibitor, partial curve, poor fit]",–
CC(C(N)=O)N1CC=C(c2c[nH]c3ccccc23)CC1 (stereo not given),"inconclusive: 50.1 µM [inhibitor, partial curve, poor fit]",–
Cc1nn(CCC#N)c2c1P(=S)(N1CCCC1)OC(c1ccc(F)cc1)=N2 (stereo not given),active: 22.4 µM,–
CC[C@@H]1C(=O)OC[C@@H]1Cc1cncn1C,"inconclusive: 112 µM [inhibitor, single point]",–
CSc1ncc(C(=O)Nc2ccc(Cl)cc2C(=O)c2ccccc2)c(C)n1,"inconclusive: 126 µM [inhibitor, partial curve, poor fit]",–
C[N+](C)(C)Cc1cccs1,"inconclusive: 20 µM [inhibitor, partial curve, poor fit]",–
CC(C(=O)NCc1cccs1)N1CC=C(c2ccccc2)CC1 (stereo not given),"inconclusive: 35.5 µM [inhibitor, single point]",–
O=C([C@H]1CN2CC[C@H]1C[C@@H]2Cn1cc(CO)nn1)N1CCCC1,–,inactive: 8.83% [at 176 µM]
CCn1cc(C(=O)N2CCOCC2)c2ccccc21,–,inactive: -7.85%
NC(=O)c1ccc(N=Cc2c(O)n(Cc3ccco3)c(=O)[nH]c2=O)cc1,–,inactive: -5.37%
COc1ccc(CN2C(=O)NC(=O)/C(=C/c3ccc(OC)c(OC)c3OC)C2=O)cc1,"inconclusive: 89.1 µM [inhibitor, single point]",–
Cc1ccc(CN2CCCN(Cc3ccc(C)cc3)S2(=O)=O)cc1,–,inactive: 41.7%
O=C(Nc1ccc(=O)n2c1[C@@H]1C[C@@H](CN(S(=O)(=O)c3ccccc3)C1)C2)c1ccccc1,–,inactive: 20.9%
O=C(NC1CCCCC1)Oc1cc2oc(=O)sc2cc1Cl,"inconclusive: 56.2 µM [inhibitor, partial curve, poor fit]",–
Cc1ccc(N2C(=O)/C(=C/N3CCN(C(=O)c4ccco4)CC3)C(=O)NC2=S)cc1C,active: 39.8 µM,–
COc1cc2c(cc1Oc1ccccc1)NC(=O)C21CCN(Cc2nccn2C)CC1,–,inactive: 15.4% [at 176 µM]
COc1ccc(-c2cc([C@H]3CN4CC[C@H]3C[C@@H]4CNC(=O)c3ccc(C)cc3)n(C)n2)cc1,–,inactive: -17.7%
CN(CCOc1ccccc1)c1ccc([N+](=O)[O-])c2cccnc12,"inconclusive: 28.2 µM [inhibitor, partial curve]",–
COC1C(O)C(C)OC(OC2CCC3(C)C(CCC4C3C(O)CC3(C)C(C5=CC(=O)OC5)CCC43O)C2)C1O (stereo not given),–,inactive: 3.63%
CC1[C@H]2Cc3ccc(O)cc3[C@]1(C)CCN2CCc1ccccc1 (stereo not given in full),"inconclusive: 79.4 µM [inhibitor, single point]",–
COc1ccc(-c2cc(=O)oc3c(C)c(OC(C)C(=O)N4C[C@H]5C[C@@H](C4)c4cccc(=O)n4C5)ccc23)cc1 (stereo not given in full),"inconclusive: 56.2 µM [inhibitor, partial curve, poor fit]",–
Cc1cc(C)n(-c2ccc(NN=C(C#N)C#N)cc2)n1,"inconclusive: 112 µM [inhibitor, single point]",–

SMILES,Potency,"activity change, negative = inhibition"
C=CCn1c(O)c(C(C)=Nc2ccc(NC(C)=O)cc2)c(=O)[nH]c1=O,"inconclusive: 39.8 µM [inhibitor, partial curve, poor fit]",–
COc1ccc(N2C(=O)/C(=C/c3ccc(C)o3)C(=O)NC2=S)c(OC)c1,"inconclusive: 2.24 µM [inhibitor, full curve, poor fit]",–
COC(=O)C(O)(c1ccc(NC(=S)NC(=O)c2ccc(Cl)cc2Cl)c(C)c1)C(F)(F)F (stereo not given),"inconclusive: 20 µM [inhibitor, full curve]",–
NS(=O)(=O)OC(CCc1ccccc1)C(Cl)(Cl)Cl (stereo not given),"inconclusive: 50.1 µM [inhibitor, partial curve, poor fit]",–
O=c1oc2ccccc2c(O)c1C(c1cccc(O)c1)c1c(O)c2ccccc2oc1=O,"inconclusive: 56.2 µM [inhibitor, partial curve, poor fit]",–
CCOP(=O)(OCC)C(O)c1cccnc1 (stereo not given),"inconclusive: 89.1 µM [inhibitor, partial curve, poor fit]",–
Oc1ccc(C[C@H]2NCCc3cc(O)c(O)cc32)cc1O,"inconclusive: 2.24 µM [inhibitor, full curve, poor fit]",–
O=C1C(Cl)=CC(=Nc2ccc(O)cc2)C=C1Cl,–,inactive: 0%
COC(=O)[C@@H]1[C@@H](CO)[C@@H]2Cn3c(ccc(Br)c3=O)[C@H]1N2Cc1cc(F)ccc1F,–,inactive: -3.92%
Cc1ccc(C(C)C)cc1OCC(=O)N1CCN(Cc2nc(N)c3ccccc3n2)CC1,–,inactive: 34.6%
COc1cc([C@@H]2c3cc4c(cc3[C@H](O)[C@@H](CO)[C@@H]2C(=O)N2CCCC2)OCO4)cc(OC)c1OC,–,inactive: 26.1%
O=C1NC(=O)N(c2ccccc2)C(=O)/C1=C\c1ccccc1[N+](=O)[O-],"inconclusive: 100 µM [inhibitor, single point]",–
O=C(Nc1ccccc1)c1c(O)c2c(n(Cc3ccco3)c1=O)CCCC2,"inconclusive: 2 µM [inhibitor, full curve, poor fit]",–
COc1ccc(N2C(=O)/C(=C/c3cccs3)C(=O)NC2=S)cc1,active: 28.2 µM,–
Cc1nc2ccccc2n1C1CCN(Cc2nnnn2CCc2ccccc2)CC1,"inconclusive: 44.7 µM [inhibitor, partial curve, poor fit]",–
CC(C)CC(N(C)C)C1(c2ccc(Cl)cc2)CCC1 (stereo not given),"inconclusive: 6.85 µM [inhibitor, full curve] and inconclusive: 39.8 µM [inhibitor, partial curve, poor fit]",–
CCC(=NCC1CCCO1)c1c(O)n(Cc2ccccc2)c(=O)[nH]c1=O (stereo not given),–,inactive: 0%
CN(C)CCC(=O)c1ccccc1,"inconclusive: 0.178 µM [inhibitor, full curve, poor fit]",–
CCC(CC)N1CCN(C(=O)Cc2ccccc2)CC1,"inconclusive: 35.5 µM [inhibitor, partial curve, poor fit]",–
O=C(Nc1cccc(Cl)c1)OC1CN2CCC1CC2 (stereo not given),"inconclusive: 100 µM [inhibitor, single point]",–
COc1ccc(S(=O)(=O)N2Cc3ccccc3-n3nncc3C2)cc1,"inconclusive: 158 µM [inhibitor, single point]",–
